# Test results published in PubChem BioAssay AID2685 (National Center for Advancing Translational Sciences (NCATS), 2010).
# This is one part of the list. Further columns of the screen follow, without active or inactive calls. Most of these compounds were active or inconclusive in the main read-out, so they are no random draw. Potencies come from curve fits of mixed quality, noted in brackets.
# Test: qHTS Assay for Lipid Storage Modulators in Drosophila S3 Cells;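 on cell number change: cells counted by Cell Tracker Red CMTPX staining in the red channel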
# Settings: BODIPY lipid droplet fluorescence, 18-24 h; for cell number change: measured here: cell count max response, cells fed with added oleic acid
# Procedure, shortened: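 Drosophila S3 cells loaded with oleic acid (400 uM, as added) and compounds at several concentrations; lipid droplets imaged by 488-nm laser-scanning cytometry, 500–530 nm intensity and object ratio to cell channel. Percent activity normalized to 20 uM Triacsin C.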
# [1] = measured here: lipid fluorescence (Fed channel) AC50, cells fed with added oleic acid
# [2] = measured here: cell number channel AC50, cells fed with added oleic acid
SMILES,cell number change,AC50 [1],AC50 [2]
Cc1cccc(C(=O)NCC(=O)N2CCC2)c1,-3.58%,"0.291 µM [falling, partial curve, poor fit]",–
COc1cccc(C2CC(=O)N3CN(c4cccc(Cl)c4C)CSC3=C2C#N)c1OC (stereo not drawn),-3.95%,"2.59 µM [falling, full curve]",–
COc1c2c(nc3ccccc13)OC(C(C)(O)CO)C2 (stereo not drawn),29.1%,"13 µM [falling, partial curve, poor fit]",–
Cc1ccc(NC(=O)C(c2ccccc2)N2CCN(CC(=O)NC3CC3)CC2)cc1 (stereo not drawn),20.2%,"0.116 µM [falling, full curve, poor fit]",–
O=C(Cn1cnc2ccccc21)N/N=C/C(Br)=C/c1ccccc1,-40.1%,"16.4 µM [falling, single point]","29.1 µM [falling, single point]"
S=c1[nH]ccn1-c1cccc(Cl)c1,33.3%,–,"29.1 µM [rising, single point]"
Cc1cc(=O)[nH]c(-n2[nH]c3c(c2=O)CCCC3)n1,-16.1%,–,–
CCN(CC)P(=O)(Nc1ccc([N+](=O)[O-])cc1)c1c(C)nn(CCC#N)c1NC(=O)c1ccc(Cl)cc1 (stereo not drawn),14.3%,"0.58 µM [rising, single point]",–
Cc1ccc(-c2nn(C)c(=O)c3ccccc23)cc1CN1CCCCC1,-12.2%,–,–
COc1ccc(N2CCN(C(=O)c3cc4c(s3)-c3ccccc3OC4)CC2)cc1,28%,"0.00651 µM [rising, full curve, poor fit]",–
CCOCCCNC(=O)COc1ccc(OC)cc1,-1.88%,–,–
O=C(CCN1C(=O)c2ccccc2C1=O)NCc1cccc(Cl)c1,17.9%,–,"0.00517 µM [rising, full curve, poor fit]"
COc1ccc2[nH]c3c(c2c1)CN(C)CC3,45%,"0.82 µM [rising, full curve]","0.461 µM [rising, full curve]"
CCC(C)NC(=O)CC1Oc2ccc(C)cc2NC1=O (stereo not drawn),–,–,"2.31 µM [rising, single point]"
COc1ccc(O)c(C(=O)c2cnc3c(c2)c(C)nn3CCO)c1,21.4%,–,–
CS(=O)(=O)N(Cc1ccco1)CC(O)Cn1c2ccccc2c2ccccc21 (stereo not drawn),216%,"1.64 µM [rising, partial curve]","23.1 µM [rising, partial curve]"
Clc1ccc(C2C3=C(Nc4ncnn42)c2ccccc2CC3)cc1 (stereo not drawn),–,"0.259 µM [rising, partial curve, poor fit]","0.291 µM [rising, full curve]"
O=C(O)CCC(=O)Nc1ccc(S(=O)(=O)N2CCCC2)cc1,-8.6%,"3.66 µM [falling, full curve]","0.651 µM [falling, partial curve]"
CCOC(=O)CNC(=O)CSc1nnc(NC(=O)c2ccc3c(c2)OCO3)s1,–,"6.51 µM [rising, single point]",–
CSc1ccccc1NC(=O)COc1nsnc1N1CCOCC1,2.45%,"29.1 µM [rising, single point]",–

# Some of these compounds in order of heavy-atom count, smallest number first:
SMILES,cell number change,AC50 [1],AC50 [2]
S=c1[nH]ccn1-c1cccc(Cl)c1,33.3%,–,"29.1 µM [rising, single point]"
CCOCCCNC(=O)COc1ccc(OC)cc1,-1.88%,–,–
COc1c2c(nc3ccccc13)OC(C(C)(O)CO)C2 (stereo not drawn),29.1%,"13 µM [falling, partial curve, poor fit]",–
O=C(O)CCC(=O)Nc1ccc(S(=O)(=O)N2CCCC2)cc1,-8.6%,"3.66 µM [falling, full curve]","0.651 µM [falling, partial curve]"
COc1ccc(O)c(C(=O)c2cnc3c(c2)c(C)nn3CCO)c1,21.4%,–,–
CS(=O)(=O)N(Cc1ccco1)CC(O)Cn1c2ccccc2c2ccccc21 (stereo not drawn),216%,"1.64 µM [rising, partial curve]","23.1 µM [rising, partial curve]"
COc1ccc(N2CCN(C(=O)c3cc4c(s3)-c3ccccc3OC4)CC2)cc1,28%,"0.00651 µM [rising, full curve, poor fit]",–
COc1cccc(C2CC(=O)N3CN(c4cccc(Cl)c4C)CSC3=C2C#N)c1OC (stereo not drawn),-3.95%,"2.59 µM [falling, full curve]",–

# Continuation:

SMILES,cell number change,AC50 [1],AC50 [2]
Cc1ccc(O)c(-c2cc(C(F)(F)C(F)F)[nH]n2)c1,-58.4%,"2.91 µM [falling, full curve, poor fit]","18.4 µM [falling, partial curve]"
COc1cc(C(=O)Nc2ccc(S(=O)(=O)Nc3cc(C)on3)cc2)cc(OC)c1OC,3.12%,"3.26 µM [falling, full curve]",–
Cc1nc2ccccc2c(-c2ccccc2)c1C(=O)c1ccccc1,67.6%,"6.51 µM [rising, single point]","7.31 µM [rising, partial curve]"
CCOC(=O)c1nn(-c2ccccc2C)c(=O)cc1OCC(=O)Nc1cccc(OC)c1,-21.5%,–,–
Cc1ccc(CNCCC2=CCCCC2)cc1,-50.8%,"29.1 µM [falling, single point]","8.2 µM [falling, partial curve]"
CCC1(C)Cc2ccccc2-c2nc3n(c(=O)c21)CC(C(=O)O)S3 (stereo not drawn),5.87%,–,–
CC1=C(C)C(c2ccccc2)NC(=S)N1 (stereo not drawn),-33.1%,"1.84 µM [falling, full curve, poor fit]","10.3 µM [falling, partial curve, poor fit]"
CC(C(=O)Nc1nnc(C2CC2)s1)N1C(=O)C2CC=CCC2C1=O (stereo not drawn),-6.01%,"29.1 µM [rising, single point]",–
Cc1ccc(C(=O)N2CCN(S(C)(=O)=O)C2)cc1,6.97%,"6.51 µM [falling, single point]",–
CCc1ccc(NC(=O)CCS(=O)(=O)c2cccc3nsnc23)cc1,36.3%,–,"1.46 µM [rising, full curve, poor fit]"
O=S(=O)(NC1=NCCCCC1)c1ccc(Cl)cc1Cl,28.1%,"0.146 µM [falling, full curve, poor fit]",–
Cc1ccc(C(=O)CCC(=O)OCC(=O)Nc2c(C)nn(-c3ccccc3)c2C)cc1,-33%,–,"32.6 µM [falling, single point]"
O=C(O)C1=C[C@@H](c2ccc3c(c2)OCO3)C[C@@H](OCc2ccc(CO)cc2)O1,15.2%,"18.4 µM [rising, single point]",–
COc1cccc(N2CCN(C3C4CC5CC(C4)CC3C5)CC2)c1 (stereo not drawn),-13.9%,–,–
Cc1ccc(SC(=O)c2c([N+](=O)[O-])c(C)nn2C)cc1,-40.2%,"29.1 µM [falling, single point]","29.1 µM [falling, single point]"
Cc1ccccc1CSCC(=O)N/N=C/c1cccs1,-16.7%,–,"0.0231 µM [falling, full curve, poor fit]"
COc1cc(/C=N/NC(=O)c2ccncc2)cc2c1OCO2,-8.51%,–,–
CC(C)[C@H](NC(=O)c1ccccc1F)C(=O)Nc1nc2c(s1)CCCC2,-21%,"9.2 µM [rising, partial curve]",–
O=C(Nc1ccc(Cl)cn1)c1cnn2cccnc12,68.7%,"1.64 µM [rising, partial curve]","0.82 µM [rising, full curve, poor fit]"
